The list shows a part of the results.
Assays:
Assay in all cases: glycan array binding signal (z-score within array); higher = stronger binding
Conditions in all cases: glycan notation: IUPAC condensed, linker removed; mutation: R276L
[1] = molecular target: Neu5Ac(a2-8)Neu5Ac
Method in brief: (§1)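 Arrays were curated from the Consortium for Functional Glycomics database, 3228 in total, and kept only where the protein sequence was available. Binding is expressed as a within-array Z-score. This score was averaged across arrays of the same protein sequence at different concentrations or buffers and across linkers, and negative values can be read as non-binding.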

[2] = molecular target: Neu5Ac(a2-8)Neu5Ac(a2-3)Gal(b1-3)GalNAc(b1-4)[Neu5Ac(a2-3)]Gal(b1-4)Glc
Method in brief: as §1

[3] = molecular target: Neu5Ac(a2-8)Neu5Ac(a2-3)Gal(b1-3)GalNAc(b1-4)[Neu5Ac(a2-8)Neu5Ac(a2-3)]Gal(b1-4)Glc
Method in brief: as §1

[4] = molecular target: Neu5Ac(a2-8)Neu5Ac(a2-3)Gal(b1-4)Glc
Method in brief: as §1

[5] = molecular target: Neu5Ac(a2-8)Neu5Ac(a2-3)Gal(b1-4)GlcNAc
Method in brief: as §1

[6] = molecular target: Neu5Ac(a2-8)Neu5Ac(a2-3)[Gal(b1-3)GalNAc(b1-4)]Gal(b1-4)Glc
Method in brief: as §1

[7] = molecular target: Neu5Ac(a2-8)Neu5Ac(a2-3)[GalNAc(b1-4)]Gal(b1-4)Glc
Method in brief: as §1

[8] = molecular target: Neu5Ac(a2-8)Neu5Ac(a2-8)Neu5Ac
Method in brief: as §1

[9] = molecular target: Neu5Ac(a2-8)Neu5Ac(a2-8)Neu5Ac(a2-3)Gal(b1-4)Glc
Method in brief: as §1

[10] = molecular target: Neu5Ac(a2-8)Neu5Ac(a2-8)Neu5Ac(a2-3)[Gal(b1-3)GalNAc(b1-4)]Gal(b1-4)Glc
Method in brief: as §1

[11] = molecular target: Neu5Ac(a2-8)Neu5Ac(a2-8)Neu5Ac(a2-3)[GalNAc(b1-4)]Gal(b1-4)Glc
Method in brief: as §1

[12] = molecular target: Neu5Ac(a2-8)Neu5Ac(a2-8)Neu5Ac(a2-8)Neu5Ac(a2-3)[GalNAc(b1-4)]Gal(b1-4)Glc
Method in brief: as §1

[13] = molecular target: Neu5Ac(a2-8)Neu5Gc(a2-3)Gal(b1-4)GlcNAc
Method in brief: as §1

[14] = molecular target: Neu5Ac(b2-6)Gal(b1-4)GlcNAc
Method in brief: as §1

[15] = molecular target: Neu5Ac(b2-6)GalNAc
Method in brief: as §1

[16] = molecular target: Neu5Ac9Ac(a2-3)Gal(b1-3)GlcNAc
Method in brief: as §1

[17] = molecular target: Neu5Ac9Ac(a2-3)Gal(b1-4)GlcNAc
Method in brief: as §1

[18] = molecular target: Neu5Ac9Ac(a2-6)Gal(b1-4)GlcNAc
Method in brief: as §1

[19] = molecular target: Neu5Gc(a2-3)Gal(b1-3)GlcNAc
Method in brief: as §1

[20] = molecular target: Neu5Gc(a2-3)Gal(b1-3)[Fuc(a1-4)]GlcNAc
Method in brief: as §1

[21] = molecular target: Neu5Gc(a2-3)Gal(b1-4)Glc
Method in brief: as §1

[22] = molecular target: Neu5Gc(a2-3)Gal(b1-4)GlcNAc
Method in brief: as §1

[23] = molecular target: Neu5Gc(a2-3)Gal(b1-4)GlcNAc(b1-3)Gal(b1-4)GlcNAc(b1-2)Man(a1-3)[Neu5Gc(a2-3)Gal(b1-4)GlcNAc(b1-3)Gal(b1-4)GlcNAc(b1-2)Man(a1-6)]Man(b1-4)GlcNAc(b1-4)GlcNAc
Method in brief: as §1

[24] = molecular target: Neu5Gc(a2-3)Gal(b1-4)[Fuc(a1-3)]GlcNAc
Method in brief: as §1

[25] = molecular target: Neu5Gc(a2-6)Gal(b1-4)GlcNAc
Method in brief: as §1

[26] = molecular target: Neu5Gc(a2-6)GalNAc
Method in brief: as §1

[27] = molecular target: Neu5Gc(a2-8)Neu5Ac(a2-3)Gal(b1-4)GlcNAc
Method in brief: as §1

[28] = molecular target: Neu5Gc(a2-8)Neu5Gc(a2-3)Gal(b1-4)GlcNAc
Method in brief: as §1

[29] = molecular target: Neu5Gc(a2-8)Neu5Gc(a2-3)Gal(b1-4)GlcNAc(b1-3)Gal(b1-4)GlcNAc
Method in brief: as §1

[30] = molecular target: Neu5Gc(a2-8)Neu5Gc(a2-6)Gal(b1-4)GlcNAc
Method in brief: as §1

[31] = molecular target: Neu5Gc(b2-6)Gal(b1-4)GlcNAc
Method in brief: as §1

B1: SUN4P (Saccharomyces cerevisiae), P53616 (protein)
chain: MGSSHHHHHHSSGLVPRGSHNGSIYGDLADFSGPYEKFEDGTIPCGQFPSGQGVIPISWLDEGGWSGVENTDTSTGGSCKEGSYCSYACQPGMSKTQWPSDQPSDGRSIGGLLCKDGYLYRSNTDTDYLCEWGVDAAYVVSELSNDVAICLTDYPGTENMVIPTYVQAGDSLPLTVVDQDTYYTWQGLKTSAQYYVNNAGISVEDACVWGSSSSGVGNWAPLNFGAGSSDGVAYLSLIPNPNNGNALNFNVKIVAADDSSTVNGECIYENGSFSGGSDGCTVSVTAGKAKFVLYN
glycan array binding signal (z-score) [1]: 0.741 | glycan array binding signal (z-score) [2]: -1.01 | glycan array binding signal (z-score) [3]: 0.907 | glycan array binding signal (z-score) [4]: -0.866 | glycan array binding signal (z-score) [5]: -0.812 | glycan array binding signal (z-score) [6]: 1.75 | glycan array binding signal (z-score) [7]: -0.678 | glycan array binding signal (z-score) [8]: 0.797 | glycan array binding signal (z-score) [9]: -0.601 | glycan array binding signal (z-score) [10]: -0.916 | glycan array binding signal (z-score) [11]: -1 | glycan array binding signal (z-score) [12]: 1.61 | glycan array binding signal (z-score) [13]: -0.234 | glycan array binding signal (z-score) [14]: 0.153 | glycan array binding signal (z-score) [15]: -0.858 | glycan array binding signal (z-score) [16]: -0.326 | glycan array binding signal (z-score) [17]: 0.625 | glycan array binding signal (z-score) [18]: -1.81 | glycan array binding signal (z-score) [19]: 0.424 | glycan array binding signal (z-score) [20]: 0.694 | glycan array binding signal (z-score) [21]: 0.359 | glycan array binding signal (z-score) [22]: -0.339 | glycan array binding signal (z-score) [23]: -0.663 | glycan array binding signal (z-score) [24]: 0.059 | glycan array binding signal (z-score) [25]: -0.649 | glycan array binding signal (z-score) [26]: -0.067 | glycan array binding signal (z-score) [27]: 0.464 | glycan array binding signal (z-score) [28]: -0.206 | glycan array binding signal (z-score) [29]: -0.229 | glycan array binding signal (z-score) [30]: -0.041 | glycan array binding signal (z-score) [31]: -0.154
